Experimental data from the supplement of paper PMC7666118.
The list shows a part of the results.

Protein sequences, listed by entry. Tags and fused reporters are not part of them. Lines headed by an entry give the natural chain unless they say otherwise; changes in a name come on top.
UniProt Q8NHS3: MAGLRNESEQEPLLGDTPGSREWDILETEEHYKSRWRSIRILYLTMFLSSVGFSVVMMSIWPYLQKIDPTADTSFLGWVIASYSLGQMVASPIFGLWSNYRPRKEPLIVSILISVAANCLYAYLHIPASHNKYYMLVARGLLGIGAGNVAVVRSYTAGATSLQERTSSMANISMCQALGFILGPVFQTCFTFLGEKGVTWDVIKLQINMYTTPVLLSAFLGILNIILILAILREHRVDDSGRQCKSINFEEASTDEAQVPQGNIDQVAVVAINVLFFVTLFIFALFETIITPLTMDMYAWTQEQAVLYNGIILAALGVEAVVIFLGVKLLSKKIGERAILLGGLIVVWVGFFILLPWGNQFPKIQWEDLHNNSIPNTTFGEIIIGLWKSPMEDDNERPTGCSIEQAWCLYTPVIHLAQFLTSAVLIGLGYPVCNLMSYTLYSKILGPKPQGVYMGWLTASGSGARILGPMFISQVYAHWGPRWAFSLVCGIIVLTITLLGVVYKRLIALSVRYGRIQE
UniProt Q14149: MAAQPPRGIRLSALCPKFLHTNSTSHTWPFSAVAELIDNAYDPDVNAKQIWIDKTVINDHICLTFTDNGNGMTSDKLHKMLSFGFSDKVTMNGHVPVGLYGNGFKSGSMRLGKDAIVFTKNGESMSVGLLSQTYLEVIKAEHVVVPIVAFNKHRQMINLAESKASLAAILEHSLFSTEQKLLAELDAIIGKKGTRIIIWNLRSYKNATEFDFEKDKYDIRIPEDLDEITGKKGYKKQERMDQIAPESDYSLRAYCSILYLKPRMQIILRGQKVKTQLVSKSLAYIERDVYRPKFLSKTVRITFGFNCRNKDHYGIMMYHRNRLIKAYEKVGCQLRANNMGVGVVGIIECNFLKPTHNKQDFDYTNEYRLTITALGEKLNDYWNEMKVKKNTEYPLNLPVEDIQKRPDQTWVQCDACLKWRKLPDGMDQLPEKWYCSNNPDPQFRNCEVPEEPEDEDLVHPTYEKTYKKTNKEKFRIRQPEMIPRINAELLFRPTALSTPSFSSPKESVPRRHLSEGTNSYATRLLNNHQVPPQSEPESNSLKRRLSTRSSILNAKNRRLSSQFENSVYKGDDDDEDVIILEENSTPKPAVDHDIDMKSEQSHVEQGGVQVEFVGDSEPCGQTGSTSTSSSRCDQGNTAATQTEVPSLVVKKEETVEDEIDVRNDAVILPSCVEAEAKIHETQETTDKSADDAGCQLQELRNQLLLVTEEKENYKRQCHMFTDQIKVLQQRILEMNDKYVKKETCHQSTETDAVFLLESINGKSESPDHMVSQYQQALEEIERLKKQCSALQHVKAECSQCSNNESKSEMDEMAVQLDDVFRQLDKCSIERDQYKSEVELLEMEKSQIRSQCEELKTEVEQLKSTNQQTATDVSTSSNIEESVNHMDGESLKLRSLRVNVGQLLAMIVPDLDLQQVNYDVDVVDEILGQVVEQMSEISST
UniProt Q9UBU8, whole entry: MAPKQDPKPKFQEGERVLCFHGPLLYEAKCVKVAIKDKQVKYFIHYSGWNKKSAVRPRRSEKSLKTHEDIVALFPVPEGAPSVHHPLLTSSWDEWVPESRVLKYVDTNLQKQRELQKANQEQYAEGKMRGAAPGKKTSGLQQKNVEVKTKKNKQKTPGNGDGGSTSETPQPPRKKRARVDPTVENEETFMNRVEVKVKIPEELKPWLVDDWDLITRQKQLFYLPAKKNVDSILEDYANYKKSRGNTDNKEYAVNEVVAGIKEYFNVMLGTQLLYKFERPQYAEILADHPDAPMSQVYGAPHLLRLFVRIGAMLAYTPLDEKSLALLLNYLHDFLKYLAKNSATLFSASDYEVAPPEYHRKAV
UniProt O95140: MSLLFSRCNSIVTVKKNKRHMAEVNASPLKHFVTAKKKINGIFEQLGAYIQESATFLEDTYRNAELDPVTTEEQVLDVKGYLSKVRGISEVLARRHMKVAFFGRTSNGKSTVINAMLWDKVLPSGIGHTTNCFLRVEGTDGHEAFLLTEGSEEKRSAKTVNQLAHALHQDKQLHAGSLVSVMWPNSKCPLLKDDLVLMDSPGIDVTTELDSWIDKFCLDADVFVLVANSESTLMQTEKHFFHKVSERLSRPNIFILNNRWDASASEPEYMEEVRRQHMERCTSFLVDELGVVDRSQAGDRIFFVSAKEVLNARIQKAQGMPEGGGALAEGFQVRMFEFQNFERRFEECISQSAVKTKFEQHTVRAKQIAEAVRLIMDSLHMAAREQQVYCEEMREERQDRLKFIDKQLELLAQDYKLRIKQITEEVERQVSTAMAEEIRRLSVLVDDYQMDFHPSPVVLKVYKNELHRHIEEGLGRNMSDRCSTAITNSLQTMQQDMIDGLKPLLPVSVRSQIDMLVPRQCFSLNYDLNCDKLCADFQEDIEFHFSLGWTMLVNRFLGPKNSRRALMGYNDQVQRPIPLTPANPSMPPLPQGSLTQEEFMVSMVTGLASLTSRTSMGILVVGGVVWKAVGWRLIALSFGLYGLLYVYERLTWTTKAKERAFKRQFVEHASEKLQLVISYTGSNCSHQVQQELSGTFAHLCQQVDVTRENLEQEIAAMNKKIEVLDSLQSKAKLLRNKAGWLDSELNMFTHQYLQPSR
UniProt Q99797: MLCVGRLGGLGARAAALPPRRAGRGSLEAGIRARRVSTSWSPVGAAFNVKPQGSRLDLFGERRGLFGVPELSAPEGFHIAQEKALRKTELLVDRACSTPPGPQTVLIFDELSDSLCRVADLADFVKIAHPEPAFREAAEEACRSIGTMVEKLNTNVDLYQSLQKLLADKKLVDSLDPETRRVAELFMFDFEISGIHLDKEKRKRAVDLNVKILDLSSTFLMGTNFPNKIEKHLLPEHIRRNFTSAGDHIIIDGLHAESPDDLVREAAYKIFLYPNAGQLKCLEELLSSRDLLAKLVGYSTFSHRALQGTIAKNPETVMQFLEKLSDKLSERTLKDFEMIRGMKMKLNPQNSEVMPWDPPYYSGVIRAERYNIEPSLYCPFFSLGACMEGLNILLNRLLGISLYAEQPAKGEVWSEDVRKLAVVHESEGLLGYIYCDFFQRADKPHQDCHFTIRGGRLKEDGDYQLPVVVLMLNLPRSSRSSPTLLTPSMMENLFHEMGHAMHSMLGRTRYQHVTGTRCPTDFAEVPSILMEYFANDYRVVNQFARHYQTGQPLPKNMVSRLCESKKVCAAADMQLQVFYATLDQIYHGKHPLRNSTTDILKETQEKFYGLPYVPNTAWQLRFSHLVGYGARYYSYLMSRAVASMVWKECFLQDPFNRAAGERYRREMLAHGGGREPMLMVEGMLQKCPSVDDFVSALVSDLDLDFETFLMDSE
UniProt O60244: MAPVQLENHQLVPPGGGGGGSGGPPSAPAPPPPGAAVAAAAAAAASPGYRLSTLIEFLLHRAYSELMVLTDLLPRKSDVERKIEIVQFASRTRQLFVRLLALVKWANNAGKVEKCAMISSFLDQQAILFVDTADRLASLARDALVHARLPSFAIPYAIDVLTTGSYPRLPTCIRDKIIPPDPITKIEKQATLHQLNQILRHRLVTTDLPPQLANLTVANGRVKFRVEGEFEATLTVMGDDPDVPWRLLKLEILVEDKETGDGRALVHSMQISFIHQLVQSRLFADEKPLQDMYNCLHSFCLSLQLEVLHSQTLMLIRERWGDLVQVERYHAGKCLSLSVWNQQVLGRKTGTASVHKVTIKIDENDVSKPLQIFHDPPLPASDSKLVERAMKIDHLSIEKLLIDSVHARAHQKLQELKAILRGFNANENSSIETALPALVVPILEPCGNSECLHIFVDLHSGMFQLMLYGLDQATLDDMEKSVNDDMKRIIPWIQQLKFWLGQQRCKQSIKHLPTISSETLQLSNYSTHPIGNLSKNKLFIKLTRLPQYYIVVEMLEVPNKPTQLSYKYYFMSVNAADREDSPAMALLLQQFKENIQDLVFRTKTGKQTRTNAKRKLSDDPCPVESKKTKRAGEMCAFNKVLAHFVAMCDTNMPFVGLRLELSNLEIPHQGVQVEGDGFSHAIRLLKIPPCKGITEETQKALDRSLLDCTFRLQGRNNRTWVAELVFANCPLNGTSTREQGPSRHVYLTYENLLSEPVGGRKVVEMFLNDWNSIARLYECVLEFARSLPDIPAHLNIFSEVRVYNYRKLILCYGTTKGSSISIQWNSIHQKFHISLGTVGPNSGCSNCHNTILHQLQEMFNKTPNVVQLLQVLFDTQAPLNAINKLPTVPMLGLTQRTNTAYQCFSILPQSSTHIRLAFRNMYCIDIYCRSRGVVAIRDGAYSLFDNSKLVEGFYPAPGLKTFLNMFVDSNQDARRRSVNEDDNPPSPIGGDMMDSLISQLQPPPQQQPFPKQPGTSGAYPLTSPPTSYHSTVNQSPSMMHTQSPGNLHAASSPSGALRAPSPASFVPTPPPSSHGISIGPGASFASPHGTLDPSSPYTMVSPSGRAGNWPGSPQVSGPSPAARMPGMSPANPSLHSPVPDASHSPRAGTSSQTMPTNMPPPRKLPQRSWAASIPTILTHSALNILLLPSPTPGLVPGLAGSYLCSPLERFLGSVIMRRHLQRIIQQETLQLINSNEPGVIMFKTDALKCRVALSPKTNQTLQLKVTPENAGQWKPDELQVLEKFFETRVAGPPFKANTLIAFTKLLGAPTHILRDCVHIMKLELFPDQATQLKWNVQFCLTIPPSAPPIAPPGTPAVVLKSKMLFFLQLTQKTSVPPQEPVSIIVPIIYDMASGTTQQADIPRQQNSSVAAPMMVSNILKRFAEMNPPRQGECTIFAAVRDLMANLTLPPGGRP
UniProt Q15773: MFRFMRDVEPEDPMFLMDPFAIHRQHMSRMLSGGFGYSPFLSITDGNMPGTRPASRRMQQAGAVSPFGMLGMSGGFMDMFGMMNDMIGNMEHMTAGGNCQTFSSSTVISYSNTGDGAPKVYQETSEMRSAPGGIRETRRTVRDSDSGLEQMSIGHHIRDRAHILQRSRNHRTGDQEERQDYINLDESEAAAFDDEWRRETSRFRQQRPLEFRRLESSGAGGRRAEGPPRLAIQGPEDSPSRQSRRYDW
UniProt Q9BQG0: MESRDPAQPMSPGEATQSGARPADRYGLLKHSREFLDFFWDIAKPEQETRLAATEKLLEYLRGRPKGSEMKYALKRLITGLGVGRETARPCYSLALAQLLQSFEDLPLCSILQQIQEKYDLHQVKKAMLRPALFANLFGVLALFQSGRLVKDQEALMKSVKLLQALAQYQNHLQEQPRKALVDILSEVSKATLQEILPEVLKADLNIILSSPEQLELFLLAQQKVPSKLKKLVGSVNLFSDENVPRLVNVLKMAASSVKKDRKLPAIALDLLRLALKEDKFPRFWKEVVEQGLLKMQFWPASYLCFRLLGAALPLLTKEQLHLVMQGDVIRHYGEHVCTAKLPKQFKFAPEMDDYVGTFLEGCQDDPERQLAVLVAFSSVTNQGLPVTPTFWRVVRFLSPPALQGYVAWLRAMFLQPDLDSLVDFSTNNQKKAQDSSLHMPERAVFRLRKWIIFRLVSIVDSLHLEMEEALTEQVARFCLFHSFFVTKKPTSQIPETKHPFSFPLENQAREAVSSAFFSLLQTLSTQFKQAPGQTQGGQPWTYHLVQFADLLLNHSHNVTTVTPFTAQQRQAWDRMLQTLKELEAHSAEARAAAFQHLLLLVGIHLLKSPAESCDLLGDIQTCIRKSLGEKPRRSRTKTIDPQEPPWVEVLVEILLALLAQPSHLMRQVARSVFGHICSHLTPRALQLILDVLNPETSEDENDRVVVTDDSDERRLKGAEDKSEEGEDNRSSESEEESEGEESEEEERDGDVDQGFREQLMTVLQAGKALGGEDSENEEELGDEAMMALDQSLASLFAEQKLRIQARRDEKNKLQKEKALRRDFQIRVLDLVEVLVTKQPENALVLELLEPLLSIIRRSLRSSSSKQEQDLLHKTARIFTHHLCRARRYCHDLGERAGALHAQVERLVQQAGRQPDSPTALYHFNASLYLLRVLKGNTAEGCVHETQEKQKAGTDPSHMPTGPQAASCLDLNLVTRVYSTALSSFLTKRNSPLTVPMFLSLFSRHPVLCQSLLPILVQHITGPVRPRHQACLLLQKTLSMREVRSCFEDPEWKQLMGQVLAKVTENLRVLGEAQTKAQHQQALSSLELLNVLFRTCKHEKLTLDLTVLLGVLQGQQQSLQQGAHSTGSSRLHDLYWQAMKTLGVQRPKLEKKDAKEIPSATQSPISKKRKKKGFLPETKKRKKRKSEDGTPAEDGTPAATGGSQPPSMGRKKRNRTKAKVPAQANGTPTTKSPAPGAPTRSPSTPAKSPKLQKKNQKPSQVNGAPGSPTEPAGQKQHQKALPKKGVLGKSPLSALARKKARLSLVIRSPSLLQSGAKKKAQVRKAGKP
UniProt O14880: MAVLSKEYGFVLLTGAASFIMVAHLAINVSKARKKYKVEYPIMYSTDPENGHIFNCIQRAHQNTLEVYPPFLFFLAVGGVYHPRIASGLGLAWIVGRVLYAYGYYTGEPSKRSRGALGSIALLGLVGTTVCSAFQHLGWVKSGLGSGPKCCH

compound: COc1ccc(Cn2ccc3cc(C)c(C(=O)NO)cc32)cc1; assay: dose-dependent thermal stabilisation call (2D-TPP, DLPTP, 10% FDR) (binary (1 = stabilised)); higher = stabilised by the compound; settings: system: HL-60 intact cells; concentration range 0.04-10 µM
Description: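 2D thermal proteome profiling in intact HL-60 cells treated with BRD-3811 (0, 0.04, 0.29, 2, 10 uM) for 90 min at 37 C, then heated 3 min at one of 12 temperatures (42-63.9 C). Soluble protein was quantified by TMT10 MS. The value is the DLPTP call of the paper: dose-dependent thermal stabilisation over all temperatures at 10% FDR (F-test of a dose-response against a flat model); one experiment, one call per tested protein.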

Target | dose-dependent thermal stabilisation call
MFSD8 (UniProt Q8NHS3) | inactive: 0
MICALL1 (UniProt Q8N3F8) | inactive: 0
MORC3 (UniProt Q14149) | inactive: 0
MFSD10 (UniProt Q14728) | inactive: 0
METTL10 (UniProt Q5JPI9) | inactive: 0
MORF4L1 (UniProt Q9UBU8) | inactive: 0
MPG (UniProt P29372) | inactive: 0
MPO (UniProt P05164) | inactive: 0
MFN2 (UniProt O95140) | inactive: 0
MOSPD1 (UniProt Q9UJG1) | inactive: 0
MED24 (UniProt O75448) | inactive: 0
MIPEP (UniProt Q99797) | inactive: 0
MED22 (UniProt Q15528) | inactive: 0
MED14 (UniProt O60244) | inactive: 0
MLF1IP (UniProt Q71F23) | inactive: 0
MRPL52 (UniProt Q86TS9) | inactive: 0
MIS12 (UniProt Q9H081) | inactive: 0
MRPS18A (UniProt Q9NVS2) | inactive: 0
MRPS31 (UniProt Q92665) | inactive: 0
MLF2 (UniProt Q15773) | inactive: 0
MRPS27 (UniProt Q92552) | inactive: 0
MRPL32 (UniProt Q9BYC8) | inactive: 0
MRPS2 (UniProt Q9Y399) | inactive: 0
MYBBP1A (UniProt Q9BQG0) | inactive: 0
MOSPD2 (UniProt Q8NHP6) | inactive: 0
MGST3 (UniProt O14880) | inactive: 0
MGAT5 (UniProt Q09328) | inactive: 0

In a second layout: results already given
MED22 (UniProt Q15528)
  dose-dependent thermal stabilisation call: inactive: 0
MED14 (UniProt O60244)
  dose-dependent thermal stabilisation call: inactive: 0
